According to PMC4376871:
These are yes or no findings as the source states them, for the method shown. Tags and fused reporters may be left off the sequences shown.

Target: T1, Kinase-dead AtSK22K99R fused to the GAL4 DNA binding domain (Arabidopsis thaliana (ecotype Sei-0 cDNA)) (UniProt Q39012)
T1 sequence: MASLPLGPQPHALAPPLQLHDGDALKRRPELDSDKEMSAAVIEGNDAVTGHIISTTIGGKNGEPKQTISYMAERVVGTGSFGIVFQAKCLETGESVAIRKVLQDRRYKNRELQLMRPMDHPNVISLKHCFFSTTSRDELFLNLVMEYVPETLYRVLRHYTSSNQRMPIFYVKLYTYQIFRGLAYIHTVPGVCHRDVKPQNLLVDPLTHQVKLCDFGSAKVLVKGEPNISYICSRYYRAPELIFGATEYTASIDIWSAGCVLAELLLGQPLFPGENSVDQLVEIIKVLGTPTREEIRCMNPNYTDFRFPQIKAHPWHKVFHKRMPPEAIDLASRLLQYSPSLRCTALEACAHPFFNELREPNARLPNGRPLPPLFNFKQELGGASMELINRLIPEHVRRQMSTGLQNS
Test: two-hybrid; yeast Y187; C4 or C4 mutants on AD, AtSKs on DBD; quantitative ß-galactosidase activity (Galacto-Star, chemiluminescence) relative to the C4/AtSK23 interaction

With “Beet curly top virus (BCTV-B[US:Logan:76]) C4 protein fused to the GAL4 activation domain” the binding was “no binding”.
